No constants are given. Whether binding was seen depends on the method and setting. Binding seen in cells or lysates may run through a third protein. Binding calls can cover weak binding; strength is not graded here. Sequences can lack the tags named with a protein.
B1: CMTM7-myc (protein, UniProt Q96FZ5 1-175)
chain: MSHGAGLVRTTCSSGSALGPGAGAAQPSASPLEGLLDLSYPRTHAALLKVAQMVTLLIAFICVRSSLWTNYSAYSYFEVVTICDLIMILAFYLVHLFRFYRVLTCISWPLSELLHYLIGTLLLLIASIVAASKSYNQSGLVAGAIFGFMATFLCMASIWLSYKISCVTQSTDAAV

Tests used:
CMTM7-myc (human) = biological target: T1, CMTM7-myc (human) (UniProt Q96FZ5); test: co-IP; anti-myc antibody and protein-G Sepharose; lysates of control and CMTM7-myc-overexpressing HeLa cells, lysed 48 h after transfection; 20 mM Tris-HCl pH 8.0, 150 mM NaCl, 2 mM EDTA, 10% glycerol, 0.5% Nonidet P-40, 4 °C; Western blot
T1 sequence: B1 chain

[1] = biological target: Rab5 (human (endogenous in HeLa)); test: co-IP; anti-Rab5 antibody and protein-G Sepharose; lysates of control and CMTM7-myc-overexpressing HeLa cells, lysed 48 h after transfection; 20 mM Tris-HCl pH 8.0, 150 mM NaCl, 2 mM EDTA, 10% glycerol, 0.5% Nonidet P-40, 4 °C; Western blot

| Molecule | binding (CMTM7-myc (human)) | binding [1] |
| --- | --- | --- |
| Rab5 (human (endogenous in HeLa)) | binds |  |
| B1 |  | binds |
